# Data published in the supplement of paper PMC5949888.
# Most values lie at the floor of the assay. Slopes are relative: functional sequences can read slightly below zero.
# Tested on: Saccharomyces cerevisiae PS128 hsf1 delta, HSF1(1-493) fusion
# Experiment: growth estimate (transactivation domain function in HSF1 fusion, heat-shock survival) (a.u. (slope of normalised read count over time)); higher = stronger growth at 37°C, i.e. more transactivation activity
# Conditions: library: random library
# Description: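 Random 60-nt DNA library encoding peptides of up to 20 aa, fused to the C-terminus of yeast HSF1 residues 1-493 (C-terminal TAD deleted) and expressed from the native HSF1 promoter on a CEN plasmid in hsf1-deleted S. cerevisiae PS128. Cells were selected at 37°C on -trp 5-FOA plates for 0, 2, 4, 6 and 8 days and amplicons were sequenced. Growth estimate is the slope of a robust linear fit of total-sum-normalised read counts (normalised to the first time point) over time, using at least 2 replicates. Sequences are classed functional (TAD activity) above a threshold of -0.13, set from stop-codon control sequences.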
row,Substance,growth estimate
1,DLDCRYDHSNIVVGCSAGKH,< -0.25
2,CLNTYSFP,< -0.25
3,GRVSAHRGRSGYVGPSEIID,< -0.25
4,KFTNS,< -0.25
5,FIVQVGTVQCGFLSIAFANT,< -0.25
6,HGKLCWRLAAGSGTSRICMS,< -0.25
7,FPRTTLSGRLPYRFNECSLR,< -0.25
8,FMTVRPDQSV,< -0.25
9,IWSVRGGVMRTSEADEAEGK,< -0.25
10,VWARMENRYSRFLATGTDSA,< -0.25
11,PRWVSRWRRGEGFCPYAAGP,-0.246
12,QESHEDALPEICKRYLAVPS,< -0.25
13,VDGAIALDRIFSR,< -0.25
14,EGIGFISIHA,< -0.25
15,EPQRY,< -0.25
16,TVISRCTVAPA,< -0.25
17,IPRTEKLRSNGSLPGPTDFE,< -0.25
18,IRVLCWCL,< -0.25
19,AESHGSDNTGMTAMFRGYTA,< -0.25
20,IGVSSKSGEL,< -0.25
21,KVKSYPENLSSFTGQVKYPL,< -0.25
22,SYRYLL,< -0.25
23,GHRKTAKIIGRSVRFDIEIG,< -0.25
24,SLSNSTLVANHCCLEHKKRT,< -0.25

row,Substance,growth estimate
1,RRE,< -0.25
2,YKEGHTSVKRWVRSAAYFQS,< -0.25
3,MSGTTP,< -0.25
4,STKWLSHWL,< -0.25
5,YPALESEDDDFNYRRAASES,< -0.25
6,NSTLISAHETPSDLKCMQCK,< -0.25
7,QLEWVKT,< -0.25
8,LRTIEKQHPENLSVRQVVLP,< -0.25
9,PMVGTSTSIRPRCSLSRGDP,< -0.25
10,HHVRSTGAS,< -0.25
11,DSRYFHG,< -0.25
12,ATPHAVGTV,< -0.25
13,EWTGSLSLKQMSYQ,< -0.25
14,TKDLI,< -0.25
15,PAESAEGNLGGSTWHRAHIG,< -0.25
16,YLHSYLPVGGSPLSPHLWGT,< -0.25
17,VHKGNGTYEPLS,< -0.25
18,AIKVLFRSPGVGRYFYTELE,< -0.25
19,GAIP,< -0.25
20,REIRTIGSGRL,< -0.25
21,NGKLG,< -0.25
22,HIVSKGVVGSS,< -0.25
23,RNSKLKLSGECLRLHMITVR,< -0.25
24,IGKLGTAIPREEVLREVSQG,< -0.25

row,Substance,growth estimate
1,GCLRRGKGRVLITSRASS,< -0.25
2,VSGAKLSRRCRMGLPGSHRR,-0.243
3,RNISLEDHRCAS,< -0.25
4,RKVYGLFGM,< -0.25
5,RSLRTNLAARYGSERITTQQ,< -0.25
6,KITNMFVTDTYSHLYG,< -0.25
7,MELHLVSTGITTYRVGRVNP,< -0.25
8,MGKSSTPGRASRTSSCHRAH,< -0.25
9,IRRGAGKNPRDVGLQC,< -0.25
10,QMGQASSIILAGCYSALRGV,< -0.25
11,NRLEC,< -0.25
12,GLMQLIRPKLA,0.0946
13,VRIRFHRSLSGSSRNTVVTT,< -0.25
14,GRLRADGVWITRFVLGTKEV,< -0.25
15,RGANIHH,< -0.25
16,FQMTEIADSDKAE,-0.245
17,IIRPTKFVFGSQDRLAVVGY,< -0.25
18,VLSASLTRYQCSRGDHVWPS,< -0.25
19,RGTT,< -0.25
20,LHWWSILVPRFAVSWCPQSF,< -0.25
21,TINVPLA,< -0.25
22,PAYDGQCSRGLEADEYMPVA,< -0.25
23,SWVLPFWGYFLGSLAPDPFL,< -0.25
24,TNADIDLVTNLSWPEAA,-0.243

# 42 entries from above, set out differently.
row	Substance	growth estimate
4	STKWLSHWL	< -0.25
5	YPALESEDDDFNYRRAASES	< -0.25
6	NSTLISAHETPSDLKCMQCK	< -0.25
7	QLEWVKT	< -0.25
9	PMVGTSTSIRPRCSLSRGDP	< -0.25
10	HHVRSTGAS	< -0.25
11	DSRYFHG	< -0.25
12	ATPHAVGTV	< -0.25
13	EWTGSLSLKQMSYQ	< -0.25
14	TKDLI	< -0.25
15	PAESAEGNLGGSTWHRAHIG	< -0.25
16	YLHSYLPVGGSPLSPHLWGT	< -0.25
18	AIKVLFRSPGVGRYFYTELE	< -0.25
19	GAIP	< -0.25
20	REIRTIGSGRL	< -0.25
21	NGKLG	< -0.25
22	HIVSKGVVGSS	< -0.25
23	RNSKLKLSGECLRLHMITVR	< -0.25
24	IGKLGTAIPREEVLREVSQG	< -0.25
1	GCLRRGKGRVLITSRASS	< -0.25
2	VSGAKLSRRCRMGLPGSHRR	-0.243
3	RNISLEDHRCAS	< -0.25
4	RKVYGLFGM	< -0.25
5	RSLRTNLAARYGSERITTQQ	< -0.25
6	KITNMFVTDTYSHLYG	< -0.25
7	MELHLVSTGITTYRVGRVNP	< -0.25
8	MGKSSTPGRASRTSSCHRAH	< -0.25
9	IRRGAGKNPRDVGLQC	< -0.25
10	QMGQASSIILAGCYSALRGV	< -0.25
11	NRLEC	< -0.25
12	GLMQLIRPKLA	0.0946
13	VRIRFHRSLSGSSRNTVVTT	< -0.25
15	RGANIHH	< -0.25
16	FQMTEIADSDKAE	-0.245
17	IIRPTKFVFGSQDRLAVVGY	< -0.25
18	VLSASLTRYQCSRGDHVWPS	< -0.25
19	RGTT	< -0.25
20	LHWWSILVPRFAVSWCPQSF	< -0.25
21	TINVPLA	< -0.25
22	PAYDGQCSRGLEADEYMPVA	< -0.25
23	SWVLPFWGYFLGSLAPDPFL	< -0.25
24	TNADIDLVTNLSWPEAA	-0.243

# Further records follow.

row,Substance,growth estimate
1,SVRGGYLIFTNQARH,< -0.25
2,GRCGDSTIRYLIPPAGTLTP,< -0.25
3,PVDSLCPSVEITLRFGRSFV,-0.229
4,KSLGRGEFRS,< -0.25
5,SEISTGVTCSLL,< -0.25
6,EAS,< -0.25
7,TAYYACSLCGRGIGVVRVGI,< -0.25
8,GHGPGKR,< -0.25
9,SDVTLRDSSCQDMRAGGPNI,< -0.25
10,HIMCQSVRVIAT,< -0.25
11,EKEIPHSVHVANRA,< -0.25
12,TCVGHIRRTRA,< -0.25
13,IYMVDCLIACSAPRSFAGSF,< -0.25
14,GSSLCRNGA,< -0.25
15,SLRT,< -0.25
16,NAT,< -0.25
17,SVRIGKWLPVERGMDSYFSE,< -0.25
18,SRSIPVSTWVLRTCVRDKTR,< -0.25
19,RQTLLSHNLISEEVGMTPMT,< -0.25
20,HGGDMPS,< -0.25
21,YRYEVIDPL,< -0.25
22,LAWIRFEYNTAKSTLRSPTS,< -0.25
23,GTLTGVSLGPMRHRCVFIGG,< -0.25
24,APERASKMDRAGARGCLRER,< -0.25

row,Substance,growth estimate
1,GDWVKEVSQCECLSICYAHT,< -0.25
2,DSHPPLRSPENKHGSVQSTL,< -0.25
3,ALPGQTDVVTARLAGSGDFL,< -0.25
4,RYRASNREFS,< -0.25
5,VFSTACLKDPRCTLQAEYPG,-0.245
6,TTCLS,< -0.25
7,KVGNTERLPRIDFKECRARV,< -0.25
8,VMGSRNSWAKAISPLSSRLD,< -0.25
9,FDHNDYQVVDQFHTPDILYW,< -0.25
10,RRERWVGQLRQYMYAGACGR,< -0.25
11,QLS,< -0.25
12,NAGV,< -0.25
13,RAGTLRFGGYRL,< -0.25
14,AFSRPSVRAALDPLRTIPI,< -0.25
15,LLSRASEGADSSSSLRGATS,< -0.25
16,SGSARARAYVLNRAHRLPWA,0.112
17,RECWVLLKEWGVLRDRA,< -0.25
18,SPRKPFSCKRTRVSFDGRHN,< -0.25
19,VQQF,< -0.25
20,CRQLLPLGQVSRSLLRTFAR,< -0.25
21,AHGGA,< -0.25
22,KTCTSETWLRIGLTWLTKDH,< -0.25
23,ARLQGP,< -0.25
24,GVSHCTVAVVVVKDALDGED,< -0.25

row,Substance,growth estimate
1,GWEEDLAKLRIARAGSL,< -0.25
2,RMRGDCAASPIRACLSSKAQ,< -0.25
3,APIFDYSGRFQCAICTQQCE,< -0.25
4,KVRVGTPLAVRQVC,< -0.25
5,ANEIYTASRFCVPSADLHGS,< -0.25
6,PQP,< -0.25
7,GRVYAVIREYAQCVAGGVRA,< -0.25
8,PSAFELG,< -0.25
9,TRRSPAGVRKRGPRTPGPLT,< -0.25
10,TVNLRGRRAWFASGRR,< -0.25
11,LLLSTTARSILGIPLIVWAA,< -0.25
12,RIPLIDESACGPESVVPVGV,< -0.25
13,CDLLRDQIELSSLEVHVGVR,< -0.25
14,GVYNSKECAQ,< -0.25
15,RSMDCVILWPES,0.781
16,IKVHQLKLRSKGRIRQLSAG,< -0.25
17,EFSAFVPLCDTSGSGAPIPG,< -0.25
18,SGSDVYVEVSRGTRRALLTH,< -0.25
19,RERGAKTDALLIKRGPTVRY,< -0.25
20,LGRFASSRPSSADDGVLRHR,< -0.25
21,GFMCTSYELQTRITLIGR,< -0.25
22,LNTLDSVSFIGIDLGVAHCI,< -0.25
23,GNWVSVNPRKGLVQDGRWGW,< -0.25
24,AIVRLGRGLREKGPEANVMW,< -0.25

row,Substance,growth estimate
1,FIGGLSLGPC,-0.0904
2,PGSARRLDQPISVMPCGFST,< -0.25
3,GILGRAHSLLLCPAGVLR,< -0.25
4,INHGQLIYMCFLGLFTQTSA,< -0.25
5,RRYRQRLGQRLHLA,-0.245
6,LGVEAASSEGN,< -0.25
7,ARLHRLTERP,< -0.25
8,NNSRIATVF,< -0.25
9,LWHRARAGA,< -0.25
10,QVRRTPT,< -0.25
11,IWGHCKMRQSVSQVSLSRIT,< -0.25
12,SNLPEVYRTFFKHRSCGCTT,< -0.25
13,KYDSAAWSDILFNKSRCLGG,< -0.25
14,YIAQSG,< -0.25
15,SRFPMNDMIAILSCIAGCSC,< -0.25
16,RAF,< -0.25
17,QTKRYVTLLGWSLAEA,< -0.25
18,GLIG,< -0.25
19,DLLG,< -0.25
20,EQRGFYLY,< -0.25
21,MLCPRLRIEIGSISRSLTAR,< -0.25
22,LKAEAERCCKIPAAFCQEAG,< -0.25
23,WPPKWEGVHR,< -0.25
24,QGSRAFAAMVQFGIIPNAWP,< -0.25

row,Substance,growth estimate
1,SGRQ,< -0.25
2,RDAALTSGQEPGDACIMLLS,< -0.25
3,GRLV,-0.198
4,RITGKMKRTHARGTYPEIAA,< -0.25
5,KVFYVACSLHLDLDAVNYRK,< -0.25
6,DRQRASCFITRKGLPQG,< -0.25
7,GSLCLTARTGPTPDPTPSGD,< -0.25
8,CGST,-0.246
9,FRRRPYETEGGKAGNGTQGL,< -0.25
10,TPDFTSYSISCSQPSSLLIF,< -0.25
11,HGEVSTVRKRWSMTSETRLD,< -0.25
12,RSAMH,< -0.25
13,FLWLQRKRPGTILRPRLGLR,< -0.25
14,VGASMSWECIIVTPAGRFEL,< -0.25
15,VDGIYKVW,< -0.25
16,HDDHDRTPTIHRVIASPGGP,< -0.25
17,QSNSNFGNWTVGSGCSSWSL,< -0.25
18,HRGGHSNWKFL,< -0.25
19,LPEAPKVIYRQAS,< -0.25
20,CHGGVRVRGIFKSNGGANVM,< -0.25
21,WRLINSLDSGADVDAGGPAL,< -0.25
